Test results published in article PMC8072677.
No constants are given. Whether binding was seen depends on the method and setting. Binding seen in cells or lysates may run through a third protein. Some results given as binding are weak or reduced against the parent protein; the word gives no strength.

By UniProt entry, the sequences of proteins in these tests, tags left out. Residues count along the entry.
UniProt P32248, residues 25-378: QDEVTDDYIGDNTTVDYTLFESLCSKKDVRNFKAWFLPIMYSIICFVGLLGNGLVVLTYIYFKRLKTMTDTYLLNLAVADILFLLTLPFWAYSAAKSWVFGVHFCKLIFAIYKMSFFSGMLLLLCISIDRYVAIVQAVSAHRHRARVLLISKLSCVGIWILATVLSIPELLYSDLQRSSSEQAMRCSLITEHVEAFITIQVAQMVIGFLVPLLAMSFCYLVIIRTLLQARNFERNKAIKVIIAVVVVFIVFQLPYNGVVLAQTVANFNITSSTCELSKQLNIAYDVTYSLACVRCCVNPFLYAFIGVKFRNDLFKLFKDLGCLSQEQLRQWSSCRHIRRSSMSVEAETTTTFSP
UniProt P32121: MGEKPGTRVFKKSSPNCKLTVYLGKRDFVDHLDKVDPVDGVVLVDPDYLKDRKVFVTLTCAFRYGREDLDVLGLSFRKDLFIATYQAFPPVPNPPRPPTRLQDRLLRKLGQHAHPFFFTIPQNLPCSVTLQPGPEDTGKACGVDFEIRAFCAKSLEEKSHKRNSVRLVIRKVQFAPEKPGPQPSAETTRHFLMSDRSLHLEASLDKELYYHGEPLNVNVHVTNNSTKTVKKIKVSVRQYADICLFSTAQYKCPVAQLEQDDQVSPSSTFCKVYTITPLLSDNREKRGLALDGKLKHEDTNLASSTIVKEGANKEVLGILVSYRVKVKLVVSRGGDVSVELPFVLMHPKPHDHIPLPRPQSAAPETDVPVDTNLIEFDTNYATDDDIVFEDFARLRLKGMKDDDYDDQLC

Biological target: CCR7-EGFP (human CCR7 fused to EGFP) (human) (UniProt P32248)
Test: FRET or BRET; HeLa cells co-transfected with β-arrestin2-Nluc and CCR7-EGFP (CCR7-HA for baseline), coelenterazine H; stimulated with 500 nM CCL19, CCL19-S6 or CCL19-S6^649P1, or 1.5 µM CCL21, CCL21-S6 or CCL21-S6^649P1

binding: binds
Substance: β-arrestin2-Nluc (from UniProt P32121 1-409)
